According to patent publication US7202068B2, “Enone reductase and methods of making and using thereof” (priority 2002, dated 2007):
Read-outs that look alike come from different tables or passages of the source. For at least one compound, name, drawing or mass did not settle the structure.

Tested on: enone reductase
Experiment: Effect of metal ions and other compounds on the enzyme activity
Format: biochemical, Candida kefyr (Candida macedoniensis) IFO 0960

Structure (SMILES) | Relative Activity (%) | Relative Activity (%) (compound added, final concentration of metal 1 mM, substrate 2-cyclohexen-1-one, None = 100)
NN [Hydrazine] | 108 | –
NC(N)=S [Thiourea] | – | 96.0
